# Measurements published in US20030113787A1.
# By UniProt entry, the sequences of proteins in these tests, tags left out. Where a name states a change or a piece, a line headed by the entry shows the natural chain unless it says otherwise.
# UniProt Q9H257: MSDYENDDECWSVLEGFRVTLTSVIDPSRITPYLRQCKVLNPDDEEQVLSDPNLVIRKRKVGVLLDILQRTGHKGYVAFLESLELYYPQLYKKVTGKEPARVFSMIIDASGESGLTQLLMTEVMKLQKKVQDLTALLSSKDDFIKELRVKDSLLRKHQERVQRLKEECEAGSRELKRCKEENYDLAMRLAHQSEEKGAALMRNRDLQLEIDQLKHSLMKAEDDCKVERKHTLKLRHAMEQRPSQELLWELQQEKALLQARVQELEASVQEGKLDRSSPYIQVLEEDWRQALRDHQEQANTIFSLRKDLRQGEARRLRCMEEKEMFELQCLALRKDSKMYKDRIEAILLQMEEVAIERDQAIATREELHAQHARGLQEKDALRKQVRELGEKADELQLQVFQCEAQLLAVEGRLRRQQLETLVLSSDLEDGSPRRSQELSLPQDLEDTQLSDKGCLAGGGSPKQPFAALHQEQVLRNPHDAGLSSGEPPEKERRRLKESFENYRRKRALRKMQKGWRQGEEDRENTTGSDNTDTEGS
# UniProt P04386: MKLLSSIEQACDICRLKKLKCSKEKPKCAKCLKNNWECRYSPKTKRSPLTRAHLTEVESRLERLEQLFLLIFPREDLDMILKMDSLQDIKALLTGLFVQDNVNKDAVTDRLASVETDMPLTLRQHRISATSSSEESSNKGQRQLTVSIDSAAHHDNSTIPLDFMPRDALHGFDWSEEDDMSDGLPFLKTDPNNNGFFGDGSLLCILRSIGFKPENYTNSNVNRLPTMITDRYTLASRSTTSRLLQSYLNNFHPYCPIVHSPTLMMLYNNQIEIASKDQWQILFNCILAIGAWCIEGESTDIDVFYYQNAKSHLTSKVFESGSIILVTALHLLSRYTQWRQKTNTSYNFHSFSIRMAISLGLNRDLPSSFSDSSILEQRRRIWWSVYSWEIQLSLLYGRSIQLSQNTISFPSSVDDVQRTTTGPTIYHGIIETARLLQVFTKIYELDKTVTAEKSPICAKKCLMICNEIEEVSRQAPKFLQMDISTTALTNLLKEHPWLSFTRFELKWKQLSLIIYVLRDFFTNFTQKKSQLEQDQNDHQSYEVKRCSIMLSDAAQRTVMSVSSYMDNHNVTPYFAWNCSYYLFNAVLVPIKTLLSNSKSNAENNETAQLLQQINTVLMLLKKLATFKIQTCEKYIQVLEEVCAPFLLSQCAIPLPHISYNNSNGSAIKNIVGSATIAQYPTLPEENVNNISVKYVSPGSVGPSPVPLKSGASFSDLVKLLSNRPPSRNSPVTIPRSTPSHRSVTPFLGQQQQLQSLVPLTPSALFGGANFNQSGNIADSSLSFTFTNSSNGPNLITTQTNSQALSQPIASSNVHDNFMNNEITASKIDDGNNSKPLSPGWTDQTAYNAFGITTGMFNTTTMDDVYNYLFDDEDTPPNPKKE
# These are yes or no findings as the source states them, for the method shown. For some assays here: In cells and extracts the contact can be indirect. Some results given as binding are weak or reduced against the parent protein; the word gives no strength. For some assays here: Tags and fused reporters may be left off the sequences shown.
# T1: Myc-tagged CARD-9 (human) (UniProt Q9H257)
# T1 sequence: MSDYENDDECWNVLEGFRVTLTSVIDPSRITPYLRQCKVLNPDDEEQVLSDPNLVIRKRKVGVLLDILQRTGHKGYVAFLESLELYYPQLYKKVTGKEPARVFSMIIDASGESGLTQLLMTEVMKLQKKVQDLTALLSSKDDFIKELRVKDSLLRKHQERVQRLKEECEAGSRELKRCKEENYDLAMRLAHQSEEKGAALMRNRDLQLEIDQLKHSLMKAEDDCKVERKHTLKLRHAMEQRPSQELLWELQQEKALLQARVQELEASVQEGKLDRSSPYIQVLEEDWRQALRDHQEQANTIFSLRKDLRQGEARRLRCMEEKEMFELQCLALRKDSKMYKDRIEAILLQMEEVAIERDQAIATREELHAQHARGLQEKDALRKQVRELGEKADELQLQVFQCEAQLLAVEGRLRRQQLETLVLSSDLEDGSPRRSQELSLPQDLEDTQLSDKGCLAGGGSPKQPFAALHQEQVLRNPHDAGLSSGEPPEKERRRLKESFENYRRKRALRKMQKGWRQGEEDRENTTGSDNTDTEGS
# T2: GST-Bcl-10 (UniProt O95999)
# T2 sequence (looked up): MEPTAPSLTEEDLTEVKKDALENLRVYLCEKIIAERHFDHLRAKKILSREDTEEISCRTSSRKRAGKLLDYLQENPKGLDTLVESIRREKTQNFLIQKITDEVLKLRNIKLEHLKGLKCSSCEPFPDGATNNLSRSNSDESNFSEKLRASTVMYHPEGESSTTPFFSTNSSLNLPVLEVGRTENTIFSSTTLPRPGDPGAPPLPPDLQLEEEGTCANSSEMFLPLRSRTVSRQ
# T3: endogenous Bcl-10 (human) (UniProt O95999)
# T3 sequence (looked up): T2 sequence (looked up)
# B1: Flag-tagged CARD-9 (protein, not shown: small tags and cut ends)
# chain: T1 sequence
# B2: 35S-labeled CARD-9 (protein)
# chain: T1 sequence
# modifications: 35S-methionine labeled
# B3: endogenous CARD-9 (protein)
# chain: T1 sequence
# B4: Myc-tagged CARD-9 (protein, not shown: small tags and cut ends)
# chain: T1 sequence
# B5: CARD-11-CARD fused to the NF-kB activation domain (pCMV-CARD-11/AD) (protein, mouse)
# chain: SPMLLPSGQISNQALALAPSSAPVLAQTMVPSSAMVPLAQPPAPAPVLTPGPPQSLSAPVPKSTQAGEGTLSEALLHLQFDADEDLGALLGNSTDPGVFTDLASVDNSEFQQLLNQGVSMSHSTAEPMLMEYPEAITRLVTGSQRPPDPAPTPLGTSGLPNGLSGDEDFSSIADMDFSALLSQISSEEDALWENVECNRHMLSRYINPAKLTPYLRQCKVIDEQDEDEVLNAPMLPSKINRAGRLLDILHTKGQRGYVVFLESLEFYYPELYKLVTGKE
# B6: FLAG-tagged CARD-10 (protein, not shown: small tags and cut ends)
# chain: MPGRAEAGEAEEEAGAGSGSEAEEDALWERIEGVRHRLARALNPAKLTPYLRQCRVIDEQDEEEVLSTYRFPCRVNRTGRLMDILRCRGKRGYEAFLEALEFYYPEHFTLLTGQEPAQRCSMILDEEGPEGLTQFLMTEVRRLREARKSQLQREQQLQARGRVLEEERAGLEQRLRDQQQAQERCQRLREDWEAGSLELLRLKDENYMIAMRLAQLSEEKNSAVLRSRDLQLAVDQLKLKVSRLEEECALLRRARGPPPGAEEKEKEKEKEKEPDNVDLVSELRAENQQLTASLRELQEGLQQEASRPGAPGSERILLDILEHDWREAQDSRQELCQKLHAVQGELQWAEELRDQYLQEMEDLRLKHRTLQKDCDLYKHRMATVLAQLEEIEKERDQAIQSRDRIQLQYSQSLIEKDQYRKQVRGLEAERDELLTTLTSLEGTKALLEVQLQRAQGGTCLKACASSHSLCSNLSSTWSLSEFPSPLGGPEATGEAAVMGGPEPHNSEEATDSEKEINRLSILPFPPSAGSILRRQREEDPAPPKRSFSSMSDITGSVTLKPWSPGLSSSSSSDSVWPLGKPEGLLARGCGLDFLNRSLAIRVSGRSPPGGPEPQDKGPDGLSFYGDRWSGAVVRRVLSGPGSARMEPREQRVEAAGLEGACLEAEAQQRTLLWNQGSTLPSLMDSKACQSFHEALEAWAKGPGAEPFYIRANLTLPERADPHALCVKAQEILRLVDSAYKRRQEWFCTRVDPLTLRDLDRGTVPNYQRAQQLLEVQEKCLPSSRHRGPRSNLKKRALDQLRLVRPKPVGAPAGDSPDQLLLEPCAEPERSLRPYSLVRPLLVSALRPVVLLPECLAPRLIRNLLDLPSSRLDFQVCPAESLSGEELCPSSAPGAPKAQPATPGLGSRIRAIQESVGKKHCLLELGARGVRERVQNEIYPIVIHVEVTEKNVREVRGLLGRPGWRDSELLRQCRGSEQVLWGLPCSWVQVPAHEWGHAEELAKVVRGRILQEQARLVWVECGSSRGCPSSSEA
# How the values were obtained:
# [1] = molecular target: T1, Myc-tagged CARD-9 (human); assay: co-immunoprecipitation (anti-Flag IP, Myc blot)
# [2] = molecular target: T1, Myc-tagged CARD-9 (human); assay: co-immunoprecipitation from transfected 293T cells (anti-Flag IP, anti-Myc blot)
# GST-Bcl-10 [3] = molecular target: T2, GST-Bcl-10; assay: GST pull-down of 35S-methionine-labeled CARD-9 on glutathione-sepharose, autoradiography
# GST-Bcl-10 [4] = molecular target: T2, GST-Bcl-10; assay: GST pull-down, autoradiography
# [5] = molecular target: T3, endogenous Bcl-10 (human); assay: co-immunoprecipitation from Thp1 cell extracts
# [6] = molecular target: T3, endogenous Bcl-10 (human); assay: co-immunoprecipitation of endogenous proteins from Thp1 cells
# [7] = molecular target: T3, endogenous Bcl-10 (human); assay: co-immunoprecipitation (Bcl-10 IP, anti-Myc blot)
# [8] = molecular target: T3, endogenous Bcl-10 (human); assay: co-immunoprecipitation from transfected 293T cells (Bcl-10 IP, anti-Myc blot)
# Bcl-10-CARD/BD (yeast) = Bcl-10-CARD/BD (yeast) (UniProt P04386+O95999); assay: mammalian two-hybrid, 293T cells
# [9] = molecular target: T3, endogenous Bcl-10 (human); assay: co-immunoprecipitation from transfected 293T cells (anti-Bcl-10 IP, anti-FLAG blot)
# [10] = molecular target: T3, endogenous Bcl-10 (human); assay: co-immunoprecipitation (anti-Bcl-10 IP, anti-FLAG blot)
binder,measurement,setting,value
B1,binding,[1],binds
same,binding,[2],binds
B2,binding,GST-Bcl-10 [3],binds
same,binding,GST-Bcl-10 [4],binds
B3,binding,[5],binds
same,binding,[6],binds
B4,binding,[7],binds
same,binding,[8],binds
B5,binding,Bcl-10-CARD/BD (yeast),binds
B6,binding,[9],binds
same,binding,[10],binds
